Assay results: patent US20180312557A1, “Leg1 Protein, Leg1 Gene, and Uses and Drugs thereof” (ZHEJIANG UNIVERSITY, priority 2016, published 2018)
For at least one compound, name, drawing or mass did not settle the structure.

Tested on: PI3K
Assay: Inhibition of mLeg1-induced Akt phosphorylation in HepG2 cells by PI3K inhibitor
Type: cell-based, human

## O=c1cc(N2CCOCC2)oc2c(-c3ccccc3)cccc12 [LY294002]
HepG2, 10 μM inhibitor, 15 minutes
  induction of Akt phosphorylation by column chromatography purified mLeg1: completely inhibit
HepG2, WT media plus inhibitor
  PTEN phosphorylation level: did not increase
HepG2, inhibitor at 10, 20 and 40 μM
  Akt phosphorylation induced by the WT media: remarkably inhibited
